The text below walks through data of the supplement of paper PMC12067093, “Discovery and optimisation of a covalent ligand for TRIM25 and its application to targeted protein ubiquitination” (Chemical Science, 2025).

By UniProt entry, the sequences of proteins in these tests, tags left out. Where a name states a change or a piece, a line headed by the entry shows the natural chain unless it says otherwise.
UniProt Q9Y376: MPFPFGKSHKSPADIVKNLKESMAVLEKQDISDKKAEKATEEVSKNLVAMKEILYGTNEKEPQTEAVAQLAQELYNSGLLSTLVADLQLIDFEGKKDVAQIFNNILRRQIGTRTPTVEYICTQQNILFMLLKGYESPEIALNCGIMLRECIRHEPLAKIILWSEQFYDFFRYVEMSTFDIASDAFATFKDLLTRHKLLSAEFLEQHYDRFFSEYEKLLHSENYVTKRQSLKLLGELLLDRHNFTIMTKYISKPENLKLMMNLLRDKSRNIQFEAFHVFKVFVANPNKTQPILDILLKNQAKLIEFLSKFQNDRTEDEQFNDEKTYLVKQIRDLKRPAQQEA
UniProt Q6PJG6: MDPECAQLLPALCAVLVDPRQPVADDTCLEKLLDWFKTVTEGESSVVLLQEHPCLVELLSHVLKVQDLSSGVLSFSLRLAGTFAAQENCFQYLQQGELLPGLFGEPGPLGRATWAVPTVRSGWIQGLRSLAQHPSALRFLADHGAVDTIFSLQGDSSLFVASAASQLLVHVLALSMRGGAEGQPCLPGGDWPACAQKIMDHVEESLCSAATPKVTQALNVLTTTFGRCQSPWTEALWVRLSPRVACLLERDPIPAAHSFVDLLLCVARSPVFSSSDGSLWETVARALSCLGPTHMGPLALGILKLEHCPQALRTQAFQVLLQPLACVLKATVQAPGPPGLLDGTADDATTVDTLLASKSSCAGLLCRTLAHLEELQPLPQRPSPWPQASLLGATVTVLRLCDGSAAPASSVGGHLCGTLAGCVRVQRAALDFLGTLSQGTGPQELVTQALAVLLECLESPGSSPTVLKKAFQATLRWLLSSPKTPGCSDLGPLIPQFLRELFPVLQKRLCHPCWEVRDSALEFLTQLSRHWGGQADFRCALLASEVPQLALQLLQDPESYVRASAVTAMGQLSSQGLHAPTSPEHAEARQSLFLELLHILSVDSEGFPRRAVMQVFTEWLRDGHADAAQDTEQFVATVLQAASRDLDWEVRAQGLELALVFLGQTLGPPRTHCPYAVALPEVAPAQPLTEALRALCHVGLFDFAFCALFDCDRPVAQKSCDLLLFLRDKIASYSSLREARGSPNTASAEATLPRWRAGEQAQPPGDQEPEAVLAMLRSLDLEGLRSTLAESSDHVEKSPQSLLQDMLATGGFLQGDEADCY
UniProt Q8N8R5: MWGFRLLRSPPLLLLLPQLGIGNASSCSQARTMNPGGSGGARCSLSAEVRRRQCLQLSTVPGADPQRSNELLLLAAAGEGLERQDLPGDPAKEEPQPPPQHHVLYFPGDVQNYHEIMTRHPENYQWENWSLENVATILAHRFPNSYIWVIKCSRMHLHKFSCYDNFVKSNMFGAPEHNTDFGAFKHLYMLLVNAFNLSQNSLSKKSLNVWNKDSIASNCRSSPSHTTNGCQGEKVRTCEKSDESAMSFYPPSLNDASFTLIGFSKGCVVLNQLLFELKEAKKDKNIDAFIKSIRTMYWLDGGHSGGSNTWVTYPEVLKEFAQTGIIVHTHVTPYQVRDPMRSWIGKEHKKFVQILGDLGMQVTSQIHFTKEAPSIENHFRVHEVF
UniProt O14981: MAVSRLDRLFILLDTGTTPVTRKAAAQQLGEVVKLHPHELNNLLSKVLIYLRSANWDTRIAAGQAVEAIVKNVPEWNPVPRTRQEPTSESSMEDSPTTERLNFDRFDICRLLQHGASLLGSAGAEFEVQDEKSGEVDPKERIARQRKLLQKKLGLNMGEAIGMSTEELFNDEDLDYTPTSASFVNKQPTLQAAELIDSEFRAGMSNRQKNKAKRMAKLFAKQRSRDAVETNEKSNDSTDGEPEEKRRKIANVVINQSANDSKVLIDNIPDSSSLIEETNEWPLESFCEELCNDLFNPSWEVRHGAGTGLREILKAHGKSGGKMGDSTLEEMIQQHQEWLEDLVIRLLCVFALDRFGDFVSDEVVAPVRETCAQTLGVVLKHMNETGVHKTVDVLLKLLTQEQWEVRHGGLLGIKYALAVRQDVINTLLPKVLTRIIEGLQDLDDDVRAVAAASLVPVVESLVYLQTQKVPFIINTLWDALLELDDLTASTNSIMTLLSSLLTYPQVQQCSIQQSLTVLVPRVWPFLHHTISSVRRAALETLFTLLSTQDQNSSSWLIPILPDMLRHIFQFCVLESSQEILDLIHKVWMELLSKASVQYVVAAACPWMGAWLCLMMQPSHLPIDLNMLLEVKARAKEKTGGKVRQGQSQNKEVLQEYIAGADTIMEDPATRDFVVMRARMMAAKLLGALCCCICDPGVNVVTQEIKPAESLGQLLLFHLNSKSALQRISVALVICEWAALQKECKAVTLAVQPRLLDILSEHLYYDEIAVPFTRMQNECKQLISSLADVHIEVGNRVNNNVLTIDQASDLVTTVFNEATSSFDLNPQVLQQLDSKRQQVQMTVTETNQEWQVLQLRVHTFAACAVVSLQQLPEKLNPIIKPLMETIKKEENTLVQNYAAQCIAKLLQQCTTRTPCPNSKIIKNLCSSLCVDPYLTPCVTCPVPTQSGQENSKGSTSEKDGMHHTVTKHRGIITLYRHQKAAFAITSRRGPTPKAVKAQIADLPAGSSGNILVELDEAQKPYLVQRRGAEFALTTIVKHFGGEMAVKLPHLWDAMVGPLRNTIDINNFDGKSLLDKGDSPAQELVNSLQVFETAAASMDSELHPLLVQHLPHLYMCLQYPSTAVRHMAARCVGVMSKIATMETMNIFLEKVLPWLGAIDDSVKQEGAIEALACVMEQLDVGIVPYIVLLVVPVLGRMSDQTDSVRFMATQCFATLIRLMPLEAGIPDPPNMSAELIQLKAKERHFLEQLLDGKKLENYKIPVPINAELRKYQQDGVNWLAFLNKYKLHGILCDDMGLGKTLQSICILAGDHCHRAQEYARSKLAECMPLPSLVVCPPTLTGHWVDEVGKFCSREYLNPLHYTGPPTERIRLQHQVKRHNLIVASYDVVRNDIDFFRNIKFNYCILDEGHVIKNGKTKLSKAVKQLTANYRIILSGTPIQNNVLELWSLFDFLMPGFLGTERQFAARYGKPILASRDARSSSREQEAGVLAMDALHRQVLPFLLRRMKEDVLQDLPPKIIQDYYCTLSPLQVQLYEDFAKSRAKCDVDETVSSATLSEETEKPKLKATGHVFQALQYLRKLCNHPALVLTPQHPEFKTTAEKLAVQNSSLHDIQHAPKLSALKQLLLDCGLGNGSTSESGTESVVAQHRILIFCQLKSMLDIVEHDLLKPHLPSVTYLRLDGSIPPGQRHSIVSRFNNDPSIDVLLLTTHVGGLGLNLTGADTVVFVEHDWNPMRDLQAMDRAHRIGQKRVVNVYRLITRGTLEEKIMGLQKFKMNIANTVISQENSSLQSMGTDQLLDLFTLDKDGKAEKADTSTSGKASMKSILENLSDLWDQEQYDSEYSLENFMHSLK
UniProt Q96RR4, whole entry, looked up: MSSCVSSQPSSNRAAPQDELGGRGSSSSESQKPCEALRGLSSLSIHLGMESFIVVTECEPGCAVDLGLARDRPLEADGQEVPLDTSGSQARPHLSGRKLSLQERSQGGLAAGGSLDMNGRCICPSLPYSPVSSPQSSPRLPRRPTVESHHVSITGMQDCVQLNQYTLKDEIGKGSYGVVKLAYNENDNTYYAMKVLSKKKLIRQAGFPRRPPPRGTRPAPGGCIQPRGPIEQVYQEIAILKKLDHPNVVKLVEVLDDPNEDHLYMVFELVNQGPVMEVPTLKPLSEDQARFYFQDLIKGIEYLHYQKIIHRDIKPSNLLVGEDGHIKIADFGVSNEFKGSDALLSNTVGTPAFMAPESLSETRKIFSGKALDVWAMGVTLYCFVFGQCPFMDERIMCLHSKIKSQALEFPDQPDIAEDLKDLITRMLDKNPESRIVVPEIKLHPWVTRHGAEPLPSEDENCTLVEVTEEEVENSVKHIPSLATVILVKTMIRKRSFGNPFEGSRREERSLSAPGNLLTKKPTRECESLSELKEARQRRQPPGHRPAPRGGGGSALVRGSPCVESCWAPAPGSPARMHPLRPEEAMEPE
UniProt O43497: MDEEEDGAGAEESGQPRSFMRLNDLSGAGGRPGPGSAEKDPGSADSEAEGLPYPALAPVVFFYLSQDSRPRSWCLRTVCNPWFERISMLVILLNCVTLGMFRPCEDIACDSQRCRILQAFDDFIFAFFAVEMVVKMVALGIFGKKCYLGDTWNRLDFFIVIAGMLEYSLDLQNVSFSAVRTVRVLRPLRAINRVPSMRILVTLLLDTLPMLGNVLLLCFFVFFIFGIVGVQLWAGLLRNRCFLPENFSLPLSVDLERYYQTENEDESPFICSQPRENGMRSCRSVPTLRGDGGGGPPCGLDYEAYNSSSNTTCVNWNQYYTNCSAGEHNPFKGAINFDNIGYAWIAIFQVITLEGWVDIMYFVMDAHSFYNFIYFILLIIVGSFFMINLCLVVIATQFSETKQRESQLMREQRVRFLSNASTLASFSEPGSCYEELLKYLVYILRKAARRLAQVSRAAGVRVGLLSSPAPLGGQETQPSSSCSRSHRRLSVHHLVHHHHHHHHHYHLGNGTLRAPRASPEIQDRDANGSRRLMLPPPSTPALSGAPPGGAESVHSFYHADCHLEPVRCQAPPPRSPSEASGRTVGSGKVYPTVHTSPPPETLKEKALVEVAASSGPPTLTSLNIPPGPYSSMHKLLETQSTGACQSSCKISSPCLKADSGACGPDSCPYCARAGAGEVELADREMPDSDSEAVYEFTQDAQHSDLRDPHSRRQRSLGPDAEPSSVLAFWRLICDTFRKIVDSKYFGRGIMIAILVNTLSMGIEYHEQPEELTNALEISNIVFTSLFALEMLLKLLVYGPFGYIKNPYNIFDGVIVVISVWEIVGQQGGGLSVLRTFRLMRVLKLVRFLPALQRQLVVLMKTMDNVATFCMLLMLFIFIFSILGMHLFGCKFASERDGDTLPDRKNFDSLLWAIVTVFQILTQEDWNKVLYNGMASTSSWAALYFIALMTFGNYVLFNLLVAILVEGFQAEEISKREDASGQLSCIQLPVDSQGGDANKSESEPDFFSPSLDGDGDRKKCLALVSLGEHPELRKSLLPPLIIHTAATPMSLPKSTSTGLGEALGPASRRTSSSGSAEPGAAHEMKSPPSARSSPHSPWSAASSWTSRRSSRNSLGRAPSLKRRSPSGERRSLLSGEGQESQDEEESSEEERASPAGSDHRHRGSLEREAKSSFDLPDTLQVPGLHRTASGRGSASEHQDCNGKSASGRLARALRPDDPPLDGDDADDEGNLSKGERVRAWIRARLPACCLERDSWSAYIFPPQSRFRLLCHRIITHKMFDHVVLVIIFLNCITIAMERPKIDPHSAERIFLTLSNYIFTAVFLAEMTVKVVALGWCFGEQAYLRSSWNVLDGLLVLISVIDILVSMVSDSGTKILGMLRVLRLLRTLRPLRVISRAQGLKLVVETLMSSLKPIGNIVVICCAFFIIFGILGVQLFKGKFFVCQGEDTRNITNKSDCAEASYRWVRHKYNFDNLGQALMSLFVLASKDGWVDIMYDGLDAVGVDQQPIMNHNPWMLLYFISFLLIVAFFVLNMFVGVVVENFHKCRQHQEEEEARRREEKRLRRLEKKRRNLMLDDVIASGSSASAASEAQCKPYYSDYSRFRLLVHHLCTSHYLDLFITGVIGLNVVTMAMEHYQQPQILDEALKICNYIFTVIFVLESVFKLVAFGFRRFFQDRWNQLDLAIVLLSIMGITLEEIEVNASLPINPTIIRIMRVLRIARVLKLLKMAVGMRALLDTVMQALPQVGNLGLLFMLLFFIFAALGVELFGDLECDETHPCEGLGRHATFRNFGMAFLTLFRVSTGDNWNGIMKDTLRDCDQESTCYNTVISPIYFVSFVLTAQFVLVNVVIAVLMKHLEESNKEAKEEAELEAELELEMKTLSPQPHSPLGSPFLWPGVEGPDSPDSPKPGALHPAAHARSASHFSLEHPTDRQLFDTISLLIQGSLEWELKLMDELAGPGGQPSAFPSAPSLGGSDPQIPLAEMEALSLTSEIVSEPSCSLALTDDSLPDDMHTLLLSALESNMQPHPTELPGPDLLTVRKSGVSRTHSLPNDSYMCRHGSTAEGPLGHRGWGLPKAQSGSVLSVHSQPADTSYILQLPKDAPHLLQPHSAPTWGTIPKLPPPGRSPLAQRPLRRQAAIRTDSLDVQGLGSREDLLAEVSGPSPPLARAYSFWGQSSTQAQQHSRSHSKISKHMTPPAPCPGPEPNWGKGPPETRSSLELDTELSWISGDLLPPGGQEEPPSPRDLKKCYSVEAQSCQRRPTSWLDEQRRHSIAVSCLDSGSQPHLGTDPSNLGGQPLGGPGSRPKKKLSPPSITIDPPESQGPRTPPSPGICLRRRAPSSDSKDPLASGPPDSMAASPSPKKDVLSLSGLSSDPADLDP
UniProt Q9BV19: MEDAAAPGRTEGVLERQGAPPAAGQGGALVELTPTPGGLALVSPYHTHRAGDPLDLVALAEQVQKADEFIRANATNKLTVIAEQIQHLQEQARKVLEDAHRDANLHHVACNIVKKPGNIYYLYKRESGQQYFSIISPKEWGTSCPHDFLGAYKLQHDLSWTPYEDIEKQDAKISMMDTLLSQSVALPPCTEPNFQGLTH

The other results are listed elsewhere or left out.
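Also: competitive profiling in live THP-1 cells: cysteine peptides tagged with an iodoacetamide desthiobiotin (IA-DTB) probe, intensity after compound treatment relative to DMSO-treated cells.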

Compound in the first test: Cc1cc(ccc1-c1ccccc1)C(=O)N1CCCN(CC1)C(=O)CCl [compound 10]
Put plainly: probe-labelled cysteine peptide fold change vs DMSO (competition) (log2 fold change); higher = less target engagement (more negative = stronger competition). The conditions noted are these: 10 µM; THP-1; incubation time: 4 h.
For the target “CAB39_Q9Y376_121_TPTVEYICTQQNILFMLLK (UniProt Q9Y376)”, the “probe-labelled cysteine peptide fold change” value was 0.245.
“BRD2_P25440_706_YVLSCLR (UniProt P25440)”: the “probe-labelled cysteine peptide fold change” value turned out to be 0.161.
As for “BTK_Q06187_464_LVQLYGVCTK (UniProt Q06187)”, the “probe-labelled cysteine peptide fold change” value came out at 0.106.
With “BRD1_O95696_638_NLHEFEEDFDLIIDNCMK (UniProt O95696)”, the “probe-labelled cysteine peptide fold change” value came to 0.346.
Same read-out and setting: the value for “CAD_P27708_183_ILALDCGLK (UniProt P27708)” was 0.0878; that for “BZW2_Q9Y6E2_97_MTNHCVFSANEDHETIR (UniProt Q9Y6E2)” was -0.189.
For “BRAT1_Q6PJG6_308_LEHCPQALR (UniProt Q6PJG6)”, the “probe-labelled cysteine peptide fold change” value was -0.441.
In the case of “C2orf69_Q8N8R5_267_GCVVLNQLLFELK (UniProt Q8N8R5)”, the “probe-labelled cysteine peptide fold change” value was 0.194.
As for “BRD4_O60885_674_YVTSCLR (UniProt O60885)”, the “probe-labelled cysteine peptide fold change” value was found to be 0.119.
Take “BTK_Q06187_337_HYVVCSTPQSQYYLAEK (UniProt Q06187)”: the “probe-labelled cysteine peptide fold change” value was 0.0975.
On to “CALR_P27797_105_HEQNIDCGGGYVK (UniProt P27797)”, for which the “probe-labelled cysteine peptide fold change” value was -0.0595.
For the target “C11orf54_Q9H0W9_149_CHDFQCALLANLFASEGQPGK (UniProt Q9H0W9)”, the “probe-labelled cysteine peptide fold change” value amounted to 0.198.
Turning to “C7orf43_Q8WVR3_305_LPGTSGCFPCPLNALEEHNFLFQLR (UniProt Q8WVR3)”, the “probe-labelled cysteine peptide fold change” value is -0.011.
The same measure, in the same setting: the value for “CAMKV_Q8NCB2_181_EPCGTPEYLAPEVVGR (UniProt Q8NCB2)” was -0.22; that for “CAND1_Q86VP6_571_DLFTCTIKR (UniProt Q86VP6)” was -0.0714.
As to “CALR_P27797_163_CKDDEFTHLYTLIVRPDNTYEVK (UniProt P27797)”, the “probe-labelled cysteine peptide fold change” value amounted to 0.029.
For the target “CAD_P27708_787_MVDENCVGFDHTVKPVSDMELETPTDKR (UniProt P27708)”, the “probe-labelled cysteine peptide fold change” value was -0.272.
“C20orf27_Q9GZN8_131_EEILLACEGGTGTCVR (UniProt Q9GZN8)”: the “probe-labelled cysteine peptide fold change” value was 0.488.
Take “BRWD1_Q9NSI6_1166_SRDEECDR (UniProt Q9NSI6)”: the “probe-labelled cysteine peptide fold change” value was -0.0851.
For the target “CAMK2D_Q13557_127_EYYSEADASHCIQQILESVNHCHLNGIVHR (UniProt Q13557)”, the “probe-labelled cysteine peptide fold change” value worked out at 0.0584.
Still for that read-out and setting: the value for “BTF3_P20290_22_GGCPGGEATLSQPPPR (UniProt P20290)” was -0.162; that for “BTAF1_O14981_109_LNFDRFDICR (UniProt O14981)” was -0.271; that for “CAMK1_Q14012_267_FTCEQALQHPWIAGDTALDK (UniProt Q14012)” was -0.0147.
The same measure, in the same setting: the value for “CAD_P27708_252_VLSEPNPRPVFGICLGHQLLALAIGAK (UniProt P27708)” was -0.467; that for “C19orf54_Q5BKX5_226_DLVLQHLVTGHPLLIPYDEDFNHEPCQR (UniProt Q5BKX5)” was 0.0102.
On to “CAMKK2_Q96RR4_397_IMCLHSK (UniProt Q96RR4)”, for which the “probe-labelled cysteine peptide fold change” value is -0.139.
Regarding “CACNA1G_O43497_1019_CLALVSLGEHPELR (UniProt O43497)”, the “probe-labelled cysteine peptide fold change” value stood at 0.092.
The same measure, in the same setting: the value for “BTAF1_O14981_1209_FMATQCFATLIR (UniProt O14981)” was 0.0615; that for “BUD31_P41223_139_IIECTHCGCR (UniProt P41223)” was 0.134; that for “CAD_P27708_1682_QDVEALWENMAVIDCFASDHAPHTLEEK (UniProt P27708)” was -0.0682.
As to “CABIN1_Q9Y6J0_1573_DVLLGSSIPWQQLQHMPAQGLFCER (UniProt Q9Y6J0)”, the “probe-labelled cysteine peptide fold change” value worked out at 0.1.
On to “C20orf27_Q9GZN8_156_CVGAELEYDSEHSDWHGFD (UniProt Q9GZN8)”, for which the “probe-labelled cysteine peptide fold change” value is -0.0571.
As for “C5orf51_A6NDU8_268_KYVSVCEGPLK (UniProt A6NDU8)”, the “probe-labelled cysteine peptide fold change” value is -0.0332.
For “C8orf88_P0DMB2_93_LSSVSICR (UniProt P0DMB2)”, the “probe-labelled cysteine peptide fold change” value is -0.216.
Consider “CAMK2B_Q13554_561_ICDPGLTSFEPEALGNLVEGMDFHR (UniProt Q13554)”, for which the “probe-labelled cysteine peptide fold change” value was found to be 0.0164.
On the same count and under the same terms, the value for “CABIN1_Q9Y6J0_1769_AGPTEPMDTSEATVCHSDLER (UniProt Q9Y6J0)” was -0.0411; that for “BRD2_P25440_353_HCNGILK (UniProt P25440)” was 0.0541.
As for “BUD31_P41223_78_ELYEYCIK (UniProt P41223)”, the “probe-labelled cysteine peptide fold change” value came out at 0.154.
For the target “C1orf50_Q9BV19_189_ISMMDTLLSQSVALPPCTEPNFQGLTH (UniProt Q9BV19)”, the “probe-labelled cysteine peptide fold change” value is -0.117.
Turning to “BRD1_O95696_86_ENSERPPVCLR (UniProt O95696)”, the “probe-labelled cysteine peptide fold change” value is -0.304.

Staying with this test, now noted: 50 µM; THP-1; incubation time: 4 h.
In the case of “CAB39_Q9Y376_121_TPTVEYICTQQNILFMLLK (UniProt Q9Y376)”, the “probe-labelled cysteine peptide fold change” value was determined as 0.48.
As for “BRD2_P25440_706_YVLSCLR (UniProt P25440)”, the “probe-labelled cysteine peptide fold change” value was -0.0522.
As for “BTK_Q06187_464_LVQLYGVCTK (UniProt Q06187)”, the “probe-labelled cysteine peptide fold change” value is -0.029.
Regarding “BRD1_O95696_638_NLHEFEEDFDLIIDNCMK (UniProt O95696)”, the “probe-labelled cysteine peptide fold change” value was determined as 0.469.
Consider “CAD_P27708_183_ILALDCGLK (UniProt P27708)”, for which the “probe-labelled cysteine peptide fold change” value was -0.184.
As for “BZW2_Q9Y6E2_97_MTNHCVFSANEDHETIR (UniProt Q9Y6E2)”, the “probe-labelled cysteine peptide fold change” value stood at 0.166.
On to “BRAT1_Q6PJG6_308_LEHCPQALR (UniProt Q6PJG6)”, for which the “probe-labelled cysteine peptide fold change” value was -0.991.
On to “C2orf69_Q8N8R5_267_GCVVLNQLLFELK (UniProt Q8N8R5)”, for which the “probe-labelled cysteine peptide fold change” value is 0.185.
On to “BRD4_O60885_674_YVTSCLR (UniProt O60885)”, for which the “probe-labelled cysteine peptide fold change” value was -0.0107.
On the same count and under the same terms, to “BTK_Q06187_337_HYVVCSTPQSQYYLAEK (UniProt Q06187)” belongs 0.0391.
With “CALR_P27797_105_HEQNIDCGGGYVK (UniProt P27797)”, the “probe-labelled cysteine peptide fold change” value was determined as 0.195.
On to “C11orf54_Q9H0W9_149_CHDFQCALLANLFASEGQPGK (UniProt Q9H0W9)”, for which the “probe-labelled cysteine peptide fold change” value is -0.4.
In the case of “C7orf43_Q8WVR3_305_LPGTSGCFPCPLNALEEHNFLFQLR (UniProt Q8WVR3)”, the “probe-labelled cysteine peptide fold change” value came out at 0.124.
The same measure, in the same setting: the value for “CAMKV_Q8NCB2_181_EPCGTPEYLAPEVVGR (UniProt Q8NCB2)” was -0.11; that for “CAND1_Q86VP6_571_DLFTCTIKR (UniProt Q86VP6)” was -0.4.
Turning to “CALR_P27797_163_CKDDEFTHLYTLIVRPDNTYEVK (UniProt P27797)”, the “probe-labelled cysteine peptide fold change” value amounted to 0.198.
For “CAD_P27708_787_MVDENCVGFDHTVKPVSDMELETPTDKR (UniProt P27708)”, the “probe-labelled cysteine peptide fold change” value is 0.00727.
“C20orf27_Q9GZN8_131_EEILLACEGGTGTCVR (UniProt Q9GZN8)”: the “probe-labelled cysteine peptide fold change” value was found to be 0.477.
Still for that read-out and setting: to “BRWD1_Q9NSI6_1166_SRDEECDR (UniProt Q9NSI6)” belongs 0.0754; to “CAMK2D_Q13557_127_EYYSEADASHCIQQILESVNHCHLNGIVHR (UniProt Q13557)”, 0.033.
In the case of “BTF3_P20290_22_GGCPGGEATLSQPPPR (UniProt P20290)”, the “probe-labelled cysteine peptide fold change” value is -0.255.
In the case of “BTAF1_O14981_109_LNFDRFDICR (UniProt O14981)”, the “probe-labelled cysteine peptide fold change” value was -0.536.
The same measure, in the same setting: to “CAMK1_Q14012_267_FTCEQALQHPWIAGDTALDK (UniProt Q14012)” belongs 0.0482; to “CAD_P27708_252_VLSEPNPRPVFGICLGHQLLALAIGAK (UniProt P27708)”, -0.598.
As to “C19orf54_Q5BKX5_226_DLVLQHLVTGHPLLIPYDEDFNHEPCQR (UniProt Q5BKX5)”, the “probe-labelled cysteine peptide fold change” value is -0.0625.
On to “CAMKK2_Q96RR4_397_IMCLHSK (UniProt Q96RR4)”, for which the “probe-labelled cysteine peptide fold change” value is -0.774.
Same read-out and setting: the value for “CACNA1G_O43497_1019_CLALVSLGEHPELR (UniProt O43497)” was 0.122; that for “BTAF1_O14981_1209_FMATQCFATLIR (UniProt O14981)” was 0.229; that for “BUD31_P41223_139_IIECTHCGCR (UniProt P41223)” was -0.0284.
Still for that read-out and setting: the value for “CAD_P27708_1682_QDVEALWENMAVIDCFASDHAPHTLEEK (UniProt P27708)” was 0.156.
For “CABIN1_Q9Y6J0_1573_DVLLGSSIPWQQLQHMPAQGLFCER (UniProt Q9Y6J0)”, the “probe-labelled cysteine peptide fold change” value was determined as 0.0414.
“C20orf27_Q9GZN8_156_CVGAELEYDSEHSDWHGFD (UniProt Q9GZN8)”: the “probe-labelled cysteine peptide fold change” value is -0.261.
In the case of “C5orf51_A6NDU8_268_KYVSVCEGPLK (UniProt A6NDU8)”, the “probe-labelled cysteine peptide fold change” value is -0.196.
Same read-out and setting: to “C8orf88_P0DMB2_93_LSSVSICR (UniProt P0DMB2)” belongs -0.797; to “CAMK2B_Q13554_561_ICDPGLTSFEPEALGNLVEGMDFHR (UniProt Q13554)”, -0.0985; to “CABIN1_Q9Y6J0_1769_AGPTEPMDTSEATVCHSDLER (UniProt Q9Y6J0)”, 0.0496.
Still for that read-out and setting: to “BRD2_P25440_353_HCNGILK (UniProt P25440)” belongs 0.0166; to “BUD31_P41223_78_ELYEYCIK (UniProt P41223)”, 0.0166; to “C1orf50_Q9BV19_189_ISMMDTLLSQSVALPPCTEPNFQGLTH (UniProt Q9BV19)”, 0.0779.
Same read-out and setting: to “BRD1_O95696_86_ENSERPPVCLR (UniProt O95696)” belongs -0.256.
